In article PMC10484740:

Legend:
[1] = molecular target: HA-tagged Bmc1 (wild type Bmc1-HA) (S. pombe); assay: co-IP; native protein extracts of S. pombe expressing HA-tagged Bmc1 (wild type or L153A V155A) and myc-tagged Pof8; Protein A/G beads coated with anti-myc or anti-HA antibody, which of the two was precipitated is not stated; western blot
[2] = molecular target: HA-tagged Bmc1 L153A V155A mutant (S. pombe); assay: as above
[3] = molecular target: PrA-tagged Bmc1 (S. pombe); assay: co-IP; native protein extracts of a Bmc1 PrA pof8Δ strain re-expressing HA-tagged Pof8 mutants; Bmc1 PrA precipitated with rabbit IgG-conjugated Dynabeads; western blot with anti-HA

B1: myc-tagged Pof8 (protein, UniProt O13795 1-402)
chain: MFVPRQLNVRKIKAFTGKENNSIADGNNNKLKDEHYKHNEASKEPSHSISGGLMLNQQDRQLIEPLNPDFLSAVDSILEIYFHRERQKEKVHLAFLIQQDDFWKGIRPNPTQNNLKYALSYVTNALFHFDNSSHMVIRNENIVLPLDIPLYDRIIYVEPVPATLSNKSLLLAGKLRKYLKEFLPYVDAIGTPEGYAFVILYKKVDQSALSKLPVPPGWVLLTRKEWTNREEKYFENQLHLVKASSSDVSNSSNSFPENRYPKLTKVEKQMTKSVSKTSQTDKDEDNLDFTKNLLTRIKNLHPLTNKSTIHSLLSYVFSRQTQNIACEPMYIDYRKDETEAIIRWKTPLHAETCINAFRTQERKQNSHDDIRAHRKKGSSRPFLIAELITGEEEKNYWRMLKK
In the case of B1, the binding [1] is reported as “binds” and the binding [2] is reported as “binds”.

B2: HA-tagged Pof8 Lsm2-8-binding mutant (Δ2–10) (protein, UniProt O13795)
chain: MKIKAFTGKENNSIADGNNNKLKDEHYKHNEASKEPSHSISGGLMLNQQDRQLIEPLNPDFLSAVDSILEIYFHRERQKEKVHLAFLIQQDDFWKGIRPNPTQNNLKYALSYVTNALFHFDNSSHMVIRNENIVLPLDIPLYDRIIYVEPVPATLSNKSLLLAGKLRKYLKEFLPYVDAIGTPEGYAFVILYKKVDQSALSKLPVPPGWVLLTRKEWTNREEKYFENQLHLVKASSSDVSNSSNSFPENRYPKLTKVEKQMTKSVSKTSQTDKDEDNLDFTKNLLTRIKNLHPLTNKSTIHSLLSYVFSRQTQNIACEPMYIDYRKDETEAIIRWKTPLHAETCINAFRTQERKQNSHDDIRAHRKKGSSRPFLIAELITGEEEKNYWRMLKK
With B2 the binding [3] was “binds”.

These are yes or no findings as the source states them, for the method shown. In cells and extracts the contact can be indirect. A result given as binding can be weak or reduced; the word gives no strength. Tags and fused reporters may be left off the sequences shown.
